Laboratory results published in paper PMC3313957.
No constants are given. Whether binding was seen depends on the method and setting. Binding seen in cells or lysates may run through a third protein. Some entries that bind do so weakly or less than the wild type.

Chains of the proteins cited; added tags and fusions are not shown.
UniProt B0BNA7: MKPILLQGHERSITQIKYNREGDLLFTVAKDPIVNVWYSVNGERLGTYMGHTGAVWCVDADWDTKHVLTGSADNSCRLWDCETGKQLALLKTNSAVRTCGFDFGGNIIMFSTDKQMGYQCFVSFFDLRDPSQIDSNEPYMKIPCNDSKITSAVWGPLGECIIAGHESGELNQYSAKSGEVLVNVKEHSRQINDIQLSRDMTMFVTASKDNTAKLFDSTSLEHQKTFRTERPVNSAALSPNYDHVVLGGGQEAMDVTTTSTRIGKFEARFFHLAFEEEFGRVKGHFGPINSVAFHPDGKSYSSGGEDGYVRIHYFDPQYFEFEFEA

Columns and labels:
[1] = target: T1, GTP cyclohydrolase I (rat (endogenous in rat liver, brain, heart and kidney)) (UniProt P22288); assay: co-IP; rat heart homogenate on GCH1 antibody cross-linked to agarose, overnight at 4°C; IgG agarose as control; eluates immunoblotted
T1 sequence: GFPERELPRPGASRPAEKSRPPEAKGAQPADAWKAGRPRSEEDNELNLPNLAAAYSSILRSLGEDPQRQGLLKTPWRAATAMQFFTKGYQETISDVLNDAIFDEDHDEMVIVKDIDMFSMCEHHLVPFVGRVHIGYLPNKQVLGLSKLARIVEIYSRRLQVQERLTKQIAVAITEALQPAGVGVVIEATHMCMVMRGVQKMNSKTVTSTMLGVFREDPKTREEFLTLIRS

[2] = target: T1, GTP cyclohydrolase I (rat (endogenous in rat liver, brain, heart and kidney)); assay: co-IP; rat kidney homogenate on GCH1 antibody cross-linked to agarose, overnight at 4°C; IgG agarose as control; eluates immunoblotted
[3] = target: T1, GTP cyclohydrolase I (rat (endogenous in rat liver, brain, heart and kidney)); assay: co-IP; rat brain homogenate on GCH1 antibody cross-linked to agarose, overnight at 4°C; IgG agarose as control; eluates immunoblotted
[4] = target: T1, GTP cyclohydrolase I (rat (endogenous in rat liver, brain, heart and kidney)); assay: co-IP; rat liver homogenate on GCH1 antibody cross-linked to agarose, overnight at 4°C; IgG agarose as control; eluates immunoblotted

binding [1]: binds
binding [2]: binds
binding [3]: binds
binding [4]: binds
Substance: Eukaryotic translation initiation factor 3 subunit I (from UniProt B0BNA7 1-325)
